# Experimental data reported in PubChem BioAssay (NCATS).
# The inconclusive results got no clear call from the source; some entries with a clear call stand among them for comparison. Where the call is inconclusive, the potency comes from a doubtful curve fit. Active and inactive are the calls of the source. Unless noted, calls come from the whole dose curve; as a rule, active = well fitted cell-killing curve with a large enough effect; inconclusive = small, poorly fitted or top-dose-only effect, or effect the other way; inactive = no such curve, though single readings can be large or run the other way.
# Columns and labels:
# [1] = Quantitative High-Throughput drug screen in 47 multiple myeloma cell lines against the NCATS MIPE library collection: UTMC2_PLB cell viability assay (AID 1919868); details: CellTiter-Glo ATP luminescence, 48 h; series mostly up to 45.8 µM; note: nearly all actives have a fitted effect of over 55% in size
# How it was run: (§1)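 Plated at 500 cells per well, myeloma lines received MIPE 4.0 compounds by pin tool. Following 48 h culture at 37 °C, CellTiter-Glo luminescence gave viability relative to DMSO and media-only controls.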
# [2] = Quantitative High-Throughput drug screen in 47 multiple myeloma cell lines against the NCATS MIPE library collection: PCM6_Riken cell viability assay (AID 1919870); details: CellTiter-Glo ATP, 48 h; series mostly up to 45.8 µM; note: nearly all actives have a fitted effect of over 30% in size
# How it was run: as §1
# [3] = Quantitative High-Throughput drug screen in 47 multiple myeloma cell lines against the NCATS MIPE library collection: RPMI8226_ATCC cell viability assay (AID 1919871); details: RPMI8226 myeloma viability, CellTiter-Glo ATP luminescence, 48 h; series mostly up to 45.8 µM; note: nearly all actives have a fitted effect of over 30% in size
# How it was run: as §1
# [4] = Quantitative High-Throughput drug screen in 47 multiple myeloma cell lines against the NCATS MIPE library collection: KMS28BM_JCRB cell viability assay (AID 1919874); details: CellTiter-Glo ATP, 48 h; series mostly up to 45.8 µM; note: nearly all actives have a fitted effect of over 35% in size
# How it was run: as §1
# [5] = qHTS for identification of novel therapeutic agents for treatment of microphthalmiaassociated transcription factor (MiT) renal cell carcinoma (RCC) (AID 1963991; calls by dose curve); details: TFE3-RCC UOK109 viability, CellTiter-Glo, 48 h; active = Z-AUC below -0.8 in all three lines
# How it was run: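 Three TFE3-fusion RCC lines (UOK109, UOK124, UOK145), 500 cells/well in complete medium, were treated with MIPE 4.0 compounds for 48 hours at 37 C. Viability was by CellTiter-Glo luminescence, normalized to DMSO (100%) and empty wells (0%); curves fitted over 11 concentrations.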
# [6] = Quantitative High-Throughput drug screen in 47 multiple myeloma cell lines against the NCATS MIPE library collection: OPM2_DSMZ cell viability assay (AID 1919872); details: OPM2 myeloma viability, CellTiter-Glo ATP luminescence, 48 h; series mostly up to 45.8 µM; note: nearly all actives have a fitted effect of over 30% in size
# How it was run: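 Primary qHTS used for cherry-picking: cells at 500/well, library compounds for 48 h (37C, 5% CO2), luminescent ATP assay.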
# [7] = Quantitative High-Throughput drug screen in 47 multiple myeloma cell lines against the NCATS MIPE library collection: PE2_PLB cell viability assay (AID 1919869); details: PE2_PLB myeloma cells viability, ATP luminescence, 48 h; series mostly up to 45.8 µM; note: nearly all actives have a fitted effect of over 35% in size
# How it was run: as §1
# [8] = Quantitative High-Throughput drug screen in 47 multiple myeloma cell lines against the NCATS MIPE library collection: KMS11_JCRBsus cell viability assay (AID 1919873); details: KMS11 myeloma viability, CellTiter-Glo ATP luminescence, 48 h; series mostly up to 45.8 µM; note: nearly all actives have a fitted effect of over 50% in size
# How it was run: as §1
# Potency is the fitted concentration of half-maximal effect.
smiles,measurement,setting,value
CC(C)=CCCC(C)=CCCC(C)=CCCC(C)=CCCC(C)=CCCC(C)=CCCC(C)=CCCC(C)=CCCC(C)=CCO,Potency,[1],inactive
same,Potency,[2],inactive
Nc1nnc(-c2cccc(Cl)c2Cl)c(N)n1,Potency,[1],inactive
same,Potency,[2],"inconclusive: 37.2 µM [cytotoxic, single point]"
same,Potency,[3],inactive
same,Potency,[4],inactive
same,Potency,[5],"inconclusive: 37.2 µM [falling, single point]"
CC1(C)O[C@@H]2C[C@H]3[C@@H]4CCC5=CC(=O)C=C[C@]5(C)[C@@H]4[C@@H](O)C[C@]3(C)[C@]2(C(=O)CO)O1,Potency,[1],"inconclusive: 37.2 µM [rising, single point]"
same,Potency,[2],"inconclusive: 13.2 µM [cytotoxic, partial curve, poor fit]"
same,Potency,[6],inactive
same,Potency,[5],"inconclusive: 23.5 µM [falling, single point]"
O=C(OCC#CCSc1nnc(-c2cccc3ccccc23)o1)c1cc2ccccc2s1,Potency,[1],"inconclusive: 37.2 µM [cytotoxic, single point]"
same,Potency,[3],"inconclusive: 29.6 µM [cytotoxic, single point]"
Cc1cn([C@@H]2C[C@@H](O)[C@H](CO)O2)c(=O)[nH]c1=O,Potency,[1],inactive
same,Potency,[7],inactive
same,Potency,[3],inactive
same,Potency,[4],inactive
C=C1C(=O)OC(CCCCCCCC)C1C(=O)O (stereo not given),Potency,[1],"inconclusive: 14.8 µM [cytotoxic, partial curve, poor fit]"
same,Potency,[7],"inconclusive: 23.5 µM [cytotoxic, partial curve]"
same,Potency,[8],"inconclusive: 23.5 µM [cytotoxic, single point]"
COc1ccc(CC2SC(=O)NC2=O)cc1C(=O)NCc1ccc(C(F)(F)F)cc1 (stereo not given),Potency,[1],"inconclusive: 11.8 µM [cytotoxic, partial curve, poor fit]"
same,Potency,[3],inactive
same,Potency,[6],"inconclusive: 1.87 µM [rising, partial curve, poor fit]"
same,Potency,[8],"inconclusive: 0.0187 µM [rising, full curve, poor fit]"
CCC(=O)N[C@H]1CC[C@H](C(=O)N(C)c2ccc(-c3nc4ccccc4o3)cc2)C1,Potency,[1],"inconclusive: 2.96 µM [cytotoxic, full curve, poor fit]"
same,Potency,[2],"inconclusive: 18.7 µM [cytotoxic, partial curve]"
same,Potency,[4],active: 14.8 µM
same,Potency,[5],"inconclusive: 6.62 µM [falling, partial curve]"
Clc1ccc(CCC(Cn2ccnc2)Sc2c(Cl)cccc2Cl)cc1 (stereo not given),Potency,[1],active: 18.7 µM
same,Potency,[2],active: 18.7 µM
same,Potency,[3],"inconclusive: 20.9 µM [cytotoxic, partial curve]"
same,Potency,[6],"inconclusive: 33.2 µM [cytotoxic, single point]"
same,Potency,[4],"inconclusive: 20.9 µM [cytotoxic, partial curve]"
same,Potency,[5],inconclusive: 33.2 µM [single point]
CC(=O)N1CCN(c2ccc(OCc3nn(C)c(C)c3-c3cccc4c(CCCOc5cc(C)c(Cl)c(C)c5)c(C(=O)O)n(Cc5cccnc5)c34)cc2)CC1,Potency,[1],active: 7.43 µM
same,Potency,[7],"inconclusive: 10.5 µM [cytotoxic, partial curve, poor fit]"
same,Potency,[4],active: 9.35 µM
same,Potency,[5],"inconclusive: 18.7 µM [falling, partial curve]"
CO[C@H]1C=CO[C@@]2(C)Oc3c(C)c(O)c4c(O)c(c5c(c4c3C2=O)NC2(CCN(CC(C)C)CC2)N=5)=NC(=O)C(C)=CC=C[C@H](C)[C@H](O)[C@@H](C)[C@@H](O)[C@@H](C)[C@H](OC(C)=O)[C@H]1C,Potency,[1],inactive
same,Potency,[2],"inconclusive: 20.9 µM [cytotoxic, partial curve]"
same,Potency,[8],inactive
Nc1nc2c(ncn2COCCO)c(=O)[nH]1,Potency,[1],"inconclusive: 0.0148 µM [cytotoxic, full curve, poor fit]"
same,Potency,[7],inactive
same,Potency,[4],"inconclusive: 0.332 µM [rising, full curve]"
Cc1ncc([N+](=O)[O-])n1CCO,Potency,[1],"inconclusive: 10.5 µM [rising, partial curve, poor fit]"
same,Potency,[7],inconclusive: 0.001 µM
same,Potency,[3],"inconclusive: 0.0372 µM [rising, full curve]"
same,Potency,[8],"inconclusive: 0.0066 µM [rising, full curve, poor fit]"
same,Potency,[4],inactive
same,Potency,[5],inconclusive: 0.00105 µM
CCOC(=O)c1ccc(OC(=O)CCCCCN=C(N)N)cc1,Potency,[1],"inconclusive: 14.8 µM [rising, partial curve, poor fit]"
same,Potency,[3],"inconclusive: 0.0017 µM [rising, full curve, poor fit]"
N#C[C@H]1C[C@H]2C[C@@H]2N1C(=O)[C@@H](N)C12CC3CC(CC(O)(C3)C1)C2,Potency,[1],"inconclusive: 0.0013 µM [rising, full curve, poor fit]"
same,Potency,[2],"inconclusive: 23.5 µM [cytotoxic, single point]"
same,Potency,[6],inactive
same,Potency,[4],"inconclusive: 1.48 µM [cytotoxic, partial curve, poor fit]"
same,Potency,[5],"inconclusive: 13.2 µM [falling, partial curve]"
O=C(NCCO[N+](=O)[O-])c1cccnc1,Potency,[1],"inconclusive: 6.62 µM [rising, partial curve, poor fit]"
same,Potency,[2],inactive
same,Potency,[3],"inconclusive: 3.72 µM [rising, partial curve, poor fit]"
same,Potency,[8],"inconclusive: 4.18 µM [rising, partial curve, poor fit]"
Nc1ncnc2ccccc12,Potency,[1],"inconclusive: 37.2 µM [cytotoxic, single point]"
same,Potency,[7],"inconclusive: 23.5 µM [cytotoxic, single point]"
same,Potency,[3],"inconclusive: 0.264 µM [rising, full curve, poor fit]"
same,Potency,[4],inactive
same,Potency,[5],"inconclusive: 0.00105 µM [falling, full curve, poor fit]"
CCN(CC)CCCC(C)Nc1nc(C)cc(Nc2ccc3nc(C)cc(N)c3c2)n1 (stereo not given),Potency,[1],"inconclusive: 0.0418 µM [rising, full curve, poor fit]"
same,Potency,[2],"inconclusive: 16.6 µM [cytotoxic, partial curve, poor fit]"
same,Potency,[3],inactive
same,Potency,[4],inactive
CC(C)(C#N)c1cc(Cn2cncn2)cc(C(C)(C)C#N)c1,Potency,[1],"inconclusive: 0.264 µM [cytotoxic, full curve, poor fit]"
same,Potency,[2],inactive
same,Potency,[3],inactive
same,Potency,[8],inactive
CCC[C@@H](NC(=O)[C@@H]1[C@H]2CCC[C@@H]2CN1C(=O)[C@@H](NC(=O)[C@@H](NC(=O)c1cnccn1)C1CCCCC1)C(C)(C)C)C(=O)C(=O)NC1CC1,Potency,[1],inactive
same,Potency,[2],"inconclusive: 14.8 µM [cytotoxic, partial curve, poor fit]"
same,Potency,[6],"inconclusive: 16.6 µM [cytotoxic, partial curve]"
same,Potency,[8],"inconclusive: 14.8 µM [cytotoxic, partial curve]"
same,Potency,[5],"inconclusive: 37.2 µM [falling, partial curve, poor fit]"
CC(C)C[C@@H](N)[C@H](O)C(=O)N[C@H](C(=O)N[C@H](C(=O)N[C@@H](CC(=O)O)C(=O)O)C(C)C)C(C)C,Potency,[1],"inconclusive: 23.5 µM [cytotoxic, partial curve, poor fit]"
same,Potency,[3],inactive
same,Potency,[6],inactive
same,Potency,[8],inactive
same,Potency,[4],"inconclusive: 0.187 µM [cytotoxic, full curve, poor fit]"
CC(C)(OCc1nn(Cc2ccccc2)c2ccccc12)C(=O)O,Potency,[1],"inconclusive: 4.18 µM [rising, partial curve, poor fit]"
same,Potency,[2],inactive
same,Potency,[5],"inconclusive: 23.5 µM [falling, single point]"
CC(C)(C)OC(=O)N[C@H]1CCCCCC=C[C@@H]2C[C@@]2(C(=O)NS(=O)(=O)C2CC2)NC(=O)[C@@H]2C[C@@H](OC(=O)N3Cc4cccc(F)c4C3)CN2C1=O,Potency,[1],"inconclusive: 0.935 µM [rising, full curve, poor fit]"
same,Potency,[2],"inconclusive: 23.5 µM [cytotoxic, single point]"
same,Potency,[3],inactive
CC=CC(=O)N(CC)c1ccccc1C,Potency,[1],inactive
same,Potency,[2],"inconclusive: 29.6 µM [cytotoxic, single point]"
same,Potency,[4],inactive
O=C(NC(Cc1cc(=O)[nH]c2ccccc12)C(=O)O)c1ccc(Cl)cc1 (stereo not given),Potency,[1],"inconclusive: 18.7 µM [rising, partial curve, poor fit]"
same,Potency,[2],"inconclusive: 0.0037 µM [rising, full curve, poor fit]"
same,Potency,[5],inconclusive: 1.32 µM
NC[C@H]1O[C@H](O[C@@H]2[C@@H](O)[C@@H](O[C@H]3O[C@H](CO)[C@@H](O)[C@H](N)[C@@H]3O)[C@H](N)C[C@@H]2N)[C@H](O)[C@@H](O)[C@H]1O,Potency,[1],"inconclusive: 2.35 µM [rising, full curve, poor fit]"
same,Potency,[2],inactive
same,Potency,[3],inactive
same,Potency,[4],inactive
Oc1ccc(-c2nc(-c3ccc(F)cc3)c(-c3ccncc3)[nH]2)cc1,Potency,[1],"inconclusive: 10.5 µM [cytotoxic, full curve, poor fit]"
same,Potency,[3],inactive
same,Potency,[6],"inconclusive: 33.2 µM [cytotoxic, single point]"
same,Potency,[8],"inconclusive: 20.9 µM [cytotoxic, partial curve]"
same,Potency,[4],"inconclusive: 23.5 µM [cytotoxic, single point]"
same,Potency,[5],"inconclusive: 20.9 µM [falling, partial curve]"
O=P(O)(O)C(O)(Cn1ccnc1)P(=O)(O)O,Potency,[1],"inconclusive: 12.9 µM [rising, partial curve, poor fit]"
same,Potency,[2],inactive
same,Potency,[3],inactive
same,Potency,[6],inactive

# Reformatted with bars between the fields: part of the list above
smiles | measurement | setting | value
Nc1ncnc2ccccc12 | Potency | [1] | inconclusive: 37.2 µM [cytotoxic, single point]
same | Potency | [7] | inconclusive: 23.5 µM [cytotoxic, single point]
same | Potency | [3] | inconclusive: 0.264 µM [rising, full curve, poor fit]
same | Potency | [4] | inactive
same | Potency | [5] | inconclusive: 0.00105 µM [falling, full curve, poor fit]
CCN(CC)CCCC(C)Nc1nc(C)cc(Nc2ccc3nc(C)cc(N)c3c2)n1 (stereo not given) | Potency | [1] | inconclusive: 0.0418 µM [rising, full curve, poor fit]
